The source of these data is paper PMC4676720.

By UniProt entry, the sequences of proteins in these tests, tags left out.
UniProt P50148: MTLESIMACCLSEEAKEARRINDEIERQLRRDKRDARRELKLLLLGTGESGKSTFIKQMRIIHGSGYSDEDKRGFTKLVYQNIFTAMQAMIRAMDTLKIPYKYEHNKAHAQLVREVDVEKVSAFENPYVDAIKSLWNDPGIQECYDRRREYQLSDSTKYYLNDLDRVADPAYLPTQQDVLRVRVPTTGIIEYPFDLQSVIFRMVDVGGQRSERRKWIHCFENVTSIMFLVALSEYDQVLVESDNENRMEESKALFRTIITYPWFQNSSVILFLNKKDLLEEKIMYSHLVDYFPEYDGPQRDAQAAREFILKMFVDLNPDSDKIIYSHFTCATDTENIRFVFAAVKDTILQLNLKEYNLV

The assay has as its target M1 muscarinic receptor, CFP-labelled (M1R-CFP) (UniProt P11229). Briefly: FRET or BRET; live HEK293-tsA201 cells transfected with M1R-CFP, YFP-Gαq, Gβ1 and Gγ2; FRET measured in unpatched cells, patched cells without spermine and patched cells with 3 mM spermine in the pipette; room temperature. For orientation: Bioluminescence resonance energy transfer reports proximity on the nanometre scale.

Results are given in words; binding and its absence hold for the method and conditions named. In cells and extracts the contact can be indirect. Some entries that bind do so weakly or less than the wild type.

Take “Gαq, YFP-labelled (YFP-Gαq) (from UniProt P50148 1-359)”: the binding result is given as “binds”.
